Test results as given in article PMC10368634.
These are yes or no findings as the source states them, for the method shown. Binding seen in cells or lysates may run through a third protein. Here binding means that the protein was enriched with, or labelled near, the bait; the list need not be complete.

Sequences of proteins named here, by UniProt entry; tags and fusion partners are left off.
UniProt P09211: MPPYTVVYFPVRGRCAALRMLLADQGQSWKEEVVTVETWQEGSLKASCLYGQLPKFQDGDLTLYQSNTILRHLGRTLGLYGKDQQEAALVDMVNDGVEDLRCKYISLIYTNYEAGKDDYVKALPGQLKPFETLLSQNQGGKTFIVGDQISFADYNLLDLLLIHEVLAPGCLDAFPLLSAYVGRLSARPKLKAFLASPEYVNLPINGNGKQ

Biological target: GFP-fused full length GSTP1 (glutathione S-transferase pi) (human) (UniProt P09211)
Test: affinity purification with mass spectrometry; GFP-GSTP1 immuno-enriched, the mixture analysed by mass spectrometry

binding: binds
Substance: G6PD (glucose-6-phosphate dehydrogenase), endogenous (from UniProt P11413 1-515) (enzyme)
